No constants are given. Whether binding was seen depends on the method and setting. Binding seen in cells or lysates may run through a third protein. Some results given as binding are weak or reduced against the parent protein; the word gives no strength.
Legend:
[1] = molecular target: integrin β1 (human (endogenous in SKMEL28 and MDA-MB-231)) (UniProt P05556); test: proximity ligation; in situ PLA (Duolink) on fixed cultured SKMEL28 and MDA-MB-231 cells on chamber slides, transfected with control or Kindlin-3 siRNA; confocal microscopy
[2] = molecular target: integrin β5 (human (endogenous in SKMEL28 and MDA-MB-231)) (UniProt P18084); test: as above

Amino acid sequences for entries named in this document (tags omitted). Residues count along the entry.
UniProt P05556: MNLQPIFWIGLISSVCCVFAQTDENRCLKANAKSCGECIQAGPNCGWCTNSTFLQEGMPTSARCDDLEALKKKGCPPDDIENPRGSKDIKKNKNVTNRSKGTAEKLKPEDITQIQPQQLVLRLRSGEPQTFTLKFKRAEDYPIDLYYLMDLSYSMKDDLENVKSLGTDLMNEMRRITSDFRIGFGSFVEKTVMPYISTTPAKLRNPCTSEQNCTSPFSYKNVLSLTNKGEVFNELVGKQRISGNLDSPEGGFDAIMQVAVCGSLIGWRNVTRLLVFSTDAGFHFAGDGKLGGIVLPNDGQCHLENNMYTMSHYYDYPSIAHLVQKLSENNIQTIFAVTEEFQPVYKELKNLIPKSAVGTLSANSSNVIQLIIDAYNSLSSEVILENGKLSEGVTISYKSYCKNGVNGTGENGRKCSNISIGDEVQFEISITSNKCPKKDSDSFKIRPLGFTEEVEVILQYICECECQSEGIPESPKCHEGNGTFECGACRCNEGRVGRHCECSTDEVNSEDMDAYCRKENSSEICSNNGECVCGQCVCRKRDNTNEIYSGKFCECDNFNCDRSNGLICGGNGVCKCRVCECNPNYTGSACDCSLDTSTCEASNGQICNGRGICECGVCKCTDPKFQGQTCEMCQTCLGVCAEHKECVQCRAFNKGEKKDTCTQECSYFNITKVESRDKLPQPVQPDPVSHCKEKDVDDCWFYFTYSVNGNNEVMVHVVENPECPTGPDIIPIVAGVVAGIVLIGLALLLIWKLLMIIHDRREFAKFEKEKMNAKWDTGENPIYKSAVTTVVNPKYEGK
UniProt P18084, residues 24-799: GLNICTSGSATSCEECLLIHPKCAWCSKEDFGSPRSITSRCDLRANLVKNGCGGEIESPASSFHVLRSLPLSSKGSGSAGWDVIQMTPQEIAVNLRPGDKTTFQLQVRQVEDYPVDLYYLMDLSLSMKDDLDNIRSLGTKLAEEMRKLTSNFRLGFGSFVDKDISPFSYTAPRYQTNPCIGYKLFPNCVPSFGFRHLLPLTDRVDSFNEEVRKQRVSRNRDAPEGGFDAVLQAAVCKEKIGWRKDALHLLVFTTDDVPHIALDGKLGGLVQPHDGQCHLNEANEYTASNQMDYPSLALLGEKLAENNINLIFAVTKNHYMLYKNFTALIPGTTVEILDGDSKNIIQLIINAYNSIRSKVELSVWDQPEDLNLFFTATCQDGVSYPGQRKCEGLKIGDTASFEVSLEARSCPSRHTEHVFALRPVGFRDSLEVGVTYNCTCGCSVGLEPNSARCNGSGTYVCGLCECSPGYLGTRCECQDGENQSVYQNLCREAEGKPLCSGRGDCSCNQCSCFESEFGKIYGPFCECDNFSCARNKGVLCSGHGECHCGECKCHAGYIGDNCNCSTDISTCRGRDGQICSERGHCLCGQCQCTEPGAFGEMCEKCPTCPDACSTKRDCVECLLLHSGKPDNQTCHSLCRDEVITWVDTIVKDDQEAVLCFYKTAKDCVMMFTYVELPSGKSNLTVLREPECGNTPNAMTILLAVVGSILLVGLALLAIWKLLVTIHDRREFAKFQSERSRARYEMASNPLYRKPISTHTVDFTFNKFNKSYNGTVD

Kindlin-3 (from UniProt Q86UX7 1-667)
binding [1]: binds | binding [2]: binds
